{"sequences": {"note": "Protein sequences, listed by entry. Tags and fused reporters are not part of them.", "UniProt O43242": "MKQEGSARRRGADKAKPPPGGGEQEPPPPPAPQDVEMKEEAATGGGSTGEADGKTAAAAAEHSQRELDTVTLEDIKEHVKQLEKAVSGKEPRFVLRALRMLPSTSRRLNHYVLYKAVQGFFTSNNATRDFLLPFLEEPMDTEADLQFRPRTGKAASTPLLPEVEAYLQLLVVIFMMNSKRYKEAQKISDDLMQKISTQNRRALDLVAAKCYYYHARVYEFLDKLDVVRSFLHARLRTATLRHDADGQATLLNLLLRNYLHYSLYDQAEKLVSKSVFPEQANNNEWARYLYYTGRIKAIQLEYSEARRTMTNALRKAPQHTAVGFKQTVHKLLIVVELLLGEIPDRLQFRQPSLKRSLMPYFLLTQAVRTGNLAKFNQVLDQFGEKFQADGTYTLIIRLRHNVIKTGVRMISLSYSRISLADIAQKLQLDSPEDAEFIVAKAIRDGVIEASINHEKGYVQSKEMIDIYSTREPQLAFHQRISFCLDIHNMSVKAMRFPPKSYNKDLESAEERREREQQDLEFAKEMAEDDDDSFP", "UniProt O75340": "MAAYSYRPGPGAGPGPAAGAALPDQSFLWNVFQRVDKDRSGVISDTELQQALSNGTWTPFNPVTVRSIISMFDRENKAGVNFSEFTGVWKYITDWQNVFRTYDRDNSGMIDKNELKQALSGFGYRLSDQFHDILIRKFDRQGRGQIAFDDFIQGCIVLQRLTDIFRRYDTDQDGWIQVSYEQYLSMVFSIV"}, "source": "paper PMC6952393", "biological_target": "GST-Rpn3 (human) (UniProt O43242)", "experiment": "affinity purification with mass spectrometry; Jurkat cells infected with GST-Rpn3 or GST retrovirus for 72 h; lysate on Glutathione Sepharose beads overnight at 4 °C, washed with PBS; LC-MS/MS", "note": "No constants are given. Whether binding was seen depends on the method and setting. Binding seen in cells or lysates may run through a third protein. A yes stands for co-enrichment or nearness to the bait. Other partners may have been found.", "data": [{"substance": "Apoptosis-linked gene 2 (ALG-2), endogenous in Jurkat cells (from UniProt O75340 1-191)", "values": [{"measurement": "binding", "value": "binds"}]}]}
